This is one part of the list.

By UniProt entry, the sequences of proteins in these tests, tags left out. Where a name states a change or a piece, a line headed by the entry shows the natural chain unless it says otherwise.
UniProt Q9UL46, whole entry: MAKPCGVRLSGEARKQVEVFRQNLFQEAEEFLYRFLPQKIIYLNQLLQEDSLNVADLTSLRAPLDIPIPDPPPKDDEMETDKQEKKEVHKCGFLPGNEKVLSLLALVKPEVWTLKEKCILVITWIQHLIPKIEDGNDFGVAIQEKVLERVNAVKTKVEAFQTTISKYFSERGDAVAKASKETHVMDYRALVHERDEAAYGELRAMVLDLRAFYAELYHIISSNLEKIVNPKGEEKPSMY
UniProt Q96E17: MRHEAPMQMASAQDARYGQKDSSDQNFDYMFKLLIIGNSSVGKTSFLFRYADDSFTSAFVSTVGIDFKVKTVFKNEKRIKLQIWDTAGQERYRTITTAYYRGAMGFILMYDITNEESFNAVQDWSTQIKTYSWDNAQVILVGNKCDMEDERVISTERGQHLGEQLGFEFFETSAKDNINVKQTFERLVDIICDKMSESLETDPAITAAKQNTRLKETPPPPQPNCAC
UniProt P48556: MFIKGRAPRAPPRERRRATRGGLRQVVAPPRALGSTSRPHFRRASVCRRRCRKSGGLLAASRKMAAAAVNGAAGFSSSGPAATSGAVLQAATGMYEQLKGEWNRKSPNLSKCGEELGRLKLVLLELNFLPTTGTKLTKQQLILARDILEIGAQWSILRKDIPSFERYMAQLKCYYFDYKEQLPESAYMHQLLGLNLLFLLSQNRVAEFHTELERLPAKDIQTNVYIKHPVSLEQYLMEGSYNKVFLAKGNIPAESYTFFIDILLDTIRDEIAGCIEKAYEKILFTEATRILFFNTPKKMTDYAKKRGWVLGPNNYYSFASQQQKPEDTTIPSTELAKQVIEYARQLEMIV
UniProt P11908: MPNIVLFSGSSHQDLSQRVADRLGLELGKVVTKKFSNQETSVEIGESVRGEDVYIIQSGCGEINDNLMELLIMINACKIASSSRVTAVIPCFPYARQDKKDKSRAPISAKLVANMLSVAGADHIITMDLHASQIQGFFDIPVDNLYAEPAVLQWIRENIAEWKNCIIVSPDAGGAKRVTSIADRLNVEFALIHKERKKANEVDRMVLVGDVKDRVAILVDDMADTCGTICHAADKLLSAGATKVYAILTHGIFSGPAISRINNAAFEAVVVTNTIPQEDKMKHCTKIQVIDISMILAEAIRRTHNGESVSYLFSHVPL
UniProt P09417: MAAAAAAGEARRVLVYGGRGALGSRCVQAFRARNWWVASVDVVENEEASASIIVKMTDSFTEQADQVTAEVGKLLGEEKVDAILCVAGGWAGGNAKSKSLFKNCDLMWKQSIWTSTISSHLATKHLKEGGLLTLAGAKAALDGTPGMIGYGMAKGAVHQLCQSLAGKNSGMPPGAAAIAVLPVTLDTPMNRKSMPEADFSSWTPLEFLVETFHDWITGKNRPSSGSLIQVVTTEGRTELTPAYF
UniProt Q7Z6K3: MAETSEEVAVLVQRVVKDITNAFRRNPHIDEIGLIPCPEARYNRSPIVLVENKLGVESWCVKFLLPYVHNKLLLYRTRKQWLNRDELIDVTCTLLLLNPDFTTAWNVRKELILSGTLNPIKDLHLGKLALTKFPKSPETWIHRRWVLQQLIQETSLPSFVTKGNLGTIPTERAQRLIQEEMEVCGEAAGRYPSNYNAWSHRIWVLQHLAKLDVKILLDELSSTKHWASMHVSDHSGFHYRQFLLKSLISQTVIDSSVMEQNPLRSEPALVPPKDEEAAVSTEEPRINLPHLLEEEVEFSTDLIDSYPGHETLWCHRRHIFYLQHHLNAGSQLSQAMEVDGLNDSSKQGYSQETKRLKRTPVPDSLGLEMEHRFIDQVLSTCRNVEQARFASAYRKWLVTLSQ
UniProt Q9UI14, whole entry: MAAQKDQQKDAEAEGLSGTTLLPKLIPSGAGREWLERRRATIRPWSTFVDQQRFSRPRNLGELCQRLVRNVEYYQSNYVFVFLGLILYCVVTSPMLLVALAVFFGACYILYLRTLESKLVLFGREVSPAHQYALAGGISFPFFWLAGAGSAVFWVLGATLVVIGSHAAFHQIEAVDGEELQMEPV
UniProt P49721: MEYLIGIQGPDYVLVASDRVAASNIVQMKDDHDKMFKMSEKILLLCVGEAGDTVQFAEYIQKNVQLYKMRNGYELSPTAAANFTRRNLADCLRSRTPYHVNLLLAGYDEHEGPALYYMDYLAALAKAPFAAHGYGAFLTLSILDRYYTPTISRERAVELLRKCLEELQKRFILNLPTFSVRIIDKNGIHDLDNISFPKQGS
UniProt P61225: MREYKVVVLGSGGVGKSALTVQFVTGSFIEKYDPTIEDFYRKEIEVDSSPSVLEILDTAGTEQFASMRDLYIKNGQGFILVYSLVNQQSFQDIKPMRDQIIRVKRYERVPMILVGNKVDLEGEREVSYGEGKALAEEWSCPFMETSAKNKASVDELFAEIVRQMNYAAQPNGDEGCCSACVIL
UniProt P06454: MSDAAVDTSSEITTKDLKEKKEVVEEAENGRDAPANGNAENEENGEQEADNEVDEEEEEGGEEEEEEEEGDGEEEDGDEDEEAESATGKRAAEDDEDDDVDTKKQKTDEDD
UniProt O60671: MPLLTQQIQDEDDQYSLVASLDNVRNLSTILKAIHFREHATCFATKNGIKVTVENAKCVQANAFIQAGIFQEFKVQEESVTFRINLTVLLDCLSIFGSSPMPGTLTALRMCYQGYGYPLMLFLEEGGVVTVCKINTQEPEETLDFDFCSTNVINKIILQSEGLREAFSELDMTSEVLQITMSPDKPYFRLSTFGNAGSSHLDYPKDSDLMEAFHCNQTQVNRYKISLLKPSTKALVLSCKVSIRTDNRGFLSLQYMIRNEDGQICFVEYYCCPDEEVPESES
UniProt P06400: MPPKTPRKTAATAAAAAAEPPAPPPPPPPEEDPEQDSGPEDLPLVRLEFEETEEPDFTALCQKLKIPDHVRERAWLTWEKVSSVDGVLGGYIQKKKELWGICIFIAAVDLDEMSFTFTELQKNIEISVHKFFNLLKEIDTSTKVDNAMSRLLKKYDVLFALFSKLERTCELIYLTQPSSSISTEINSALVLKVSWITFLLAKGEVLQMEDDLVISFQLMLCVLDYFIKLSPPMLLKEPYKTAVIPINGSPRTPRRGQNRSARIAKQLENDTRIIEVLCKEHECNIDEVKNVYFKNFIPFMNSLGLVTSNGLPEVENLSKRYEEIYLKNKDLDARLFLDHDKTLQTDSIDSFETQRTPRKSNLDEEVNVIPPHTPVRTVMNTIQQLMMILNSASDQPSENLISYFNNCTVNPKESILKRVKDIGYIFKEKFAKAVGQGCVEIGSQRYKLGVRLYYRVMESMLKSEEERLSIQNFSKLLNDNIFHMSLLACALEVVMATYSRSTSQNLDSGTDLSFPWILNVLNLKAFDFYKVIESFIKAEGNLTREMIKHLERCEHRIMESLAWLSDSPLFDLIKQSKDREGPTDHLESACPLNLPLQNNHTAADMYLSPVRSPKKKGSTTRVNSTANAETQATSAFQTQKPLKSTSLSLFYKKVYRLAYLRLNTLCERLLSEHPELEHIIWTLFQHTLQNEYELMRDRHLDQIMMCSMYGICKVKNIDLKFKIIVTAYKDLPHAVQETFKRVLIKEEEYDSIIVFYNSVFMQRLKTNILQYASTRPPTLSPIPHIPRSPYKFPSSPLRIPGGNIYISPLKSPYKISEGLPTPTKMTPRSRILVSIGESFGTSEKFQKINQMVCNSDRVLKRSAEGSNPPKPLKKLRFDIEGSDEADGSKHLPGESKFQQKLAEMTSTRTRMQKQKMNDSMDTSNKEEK
UniProt Q7Z7A4: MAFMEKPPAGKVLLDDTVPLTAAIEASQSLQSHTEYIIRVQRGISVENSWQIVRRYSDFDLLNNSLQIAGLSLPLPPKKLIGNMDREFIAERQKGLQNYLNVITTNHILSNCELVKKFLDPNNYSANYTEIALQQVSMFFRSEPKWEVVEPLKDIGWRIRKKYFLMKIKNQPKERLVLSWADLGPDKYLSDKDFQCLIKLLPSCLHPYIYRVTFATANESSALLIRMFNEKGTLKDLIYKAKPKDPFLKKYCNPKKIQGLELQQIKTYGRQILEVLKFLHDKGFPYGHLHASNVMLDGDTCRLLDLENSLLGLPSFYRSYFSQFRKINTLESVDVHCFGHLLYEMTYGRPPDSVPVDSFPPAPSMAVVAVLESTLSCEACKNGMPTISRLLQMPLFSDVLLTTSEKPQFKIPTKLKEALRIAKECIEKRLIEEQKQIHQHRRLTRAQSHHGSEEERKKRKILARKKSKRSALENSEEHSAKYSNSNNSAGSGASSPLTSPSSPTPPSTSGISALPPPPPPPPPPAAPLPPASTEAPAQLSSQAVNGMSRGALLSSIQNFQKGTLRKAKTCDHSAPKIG
UniProt Q6ZRP7: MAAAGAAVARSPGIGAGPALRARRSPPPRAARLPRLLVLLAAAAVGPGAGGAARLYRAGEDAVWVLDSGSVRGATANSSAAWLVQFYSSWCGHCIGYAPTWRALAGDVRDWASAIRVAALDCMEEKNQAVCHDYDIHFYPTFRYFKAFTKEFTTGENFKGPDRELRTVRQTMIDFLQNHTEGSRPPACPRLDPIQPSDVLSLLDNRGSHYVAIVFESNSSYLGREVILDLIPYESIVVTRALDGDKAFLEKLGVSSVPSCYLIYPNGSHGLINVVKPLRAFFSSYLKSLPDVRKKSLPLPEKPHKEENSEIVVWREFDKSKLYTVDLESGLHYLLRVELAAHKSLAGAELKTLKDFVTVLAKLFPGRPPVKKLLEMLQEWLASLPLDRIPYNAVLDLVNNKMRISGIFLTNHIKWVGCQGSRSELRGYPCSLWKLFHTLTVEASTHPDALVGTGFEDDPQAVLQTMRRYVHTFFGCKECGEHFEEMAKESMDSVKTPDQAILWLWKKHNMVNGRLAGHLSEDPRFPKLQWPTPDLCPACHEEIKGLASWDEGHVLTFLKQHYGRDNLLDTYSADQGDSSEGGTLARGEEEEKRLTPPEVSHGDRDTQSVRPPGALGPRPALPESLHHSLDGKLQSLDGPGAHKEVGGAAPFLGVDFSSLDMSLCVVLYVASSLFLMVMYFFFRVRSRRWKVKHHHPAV
UniProt Q5HYI8: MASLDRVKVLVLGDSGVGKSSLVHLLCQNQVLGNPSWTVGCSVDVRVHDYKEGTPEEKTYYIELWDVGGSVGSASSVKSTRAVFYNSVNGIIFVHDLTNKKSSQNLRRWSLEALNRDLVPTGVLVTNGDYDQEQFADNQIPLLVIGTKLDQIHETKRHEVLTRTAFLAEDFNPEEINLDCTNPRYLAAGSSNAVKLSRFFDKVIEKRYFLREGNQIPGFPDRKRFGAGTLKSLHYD
UniProt O00233: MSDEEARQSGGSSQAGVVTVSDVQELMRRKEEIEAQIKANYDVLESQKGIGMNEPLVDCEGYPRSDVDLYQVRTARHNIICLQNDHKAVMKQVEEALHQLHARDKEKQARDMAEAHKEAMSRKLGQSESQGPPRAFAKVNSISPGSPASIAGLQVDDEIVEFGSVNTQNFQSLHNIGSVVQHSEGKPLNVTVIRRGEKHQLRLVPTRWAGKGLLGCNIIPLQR
UniProt Q96EV2: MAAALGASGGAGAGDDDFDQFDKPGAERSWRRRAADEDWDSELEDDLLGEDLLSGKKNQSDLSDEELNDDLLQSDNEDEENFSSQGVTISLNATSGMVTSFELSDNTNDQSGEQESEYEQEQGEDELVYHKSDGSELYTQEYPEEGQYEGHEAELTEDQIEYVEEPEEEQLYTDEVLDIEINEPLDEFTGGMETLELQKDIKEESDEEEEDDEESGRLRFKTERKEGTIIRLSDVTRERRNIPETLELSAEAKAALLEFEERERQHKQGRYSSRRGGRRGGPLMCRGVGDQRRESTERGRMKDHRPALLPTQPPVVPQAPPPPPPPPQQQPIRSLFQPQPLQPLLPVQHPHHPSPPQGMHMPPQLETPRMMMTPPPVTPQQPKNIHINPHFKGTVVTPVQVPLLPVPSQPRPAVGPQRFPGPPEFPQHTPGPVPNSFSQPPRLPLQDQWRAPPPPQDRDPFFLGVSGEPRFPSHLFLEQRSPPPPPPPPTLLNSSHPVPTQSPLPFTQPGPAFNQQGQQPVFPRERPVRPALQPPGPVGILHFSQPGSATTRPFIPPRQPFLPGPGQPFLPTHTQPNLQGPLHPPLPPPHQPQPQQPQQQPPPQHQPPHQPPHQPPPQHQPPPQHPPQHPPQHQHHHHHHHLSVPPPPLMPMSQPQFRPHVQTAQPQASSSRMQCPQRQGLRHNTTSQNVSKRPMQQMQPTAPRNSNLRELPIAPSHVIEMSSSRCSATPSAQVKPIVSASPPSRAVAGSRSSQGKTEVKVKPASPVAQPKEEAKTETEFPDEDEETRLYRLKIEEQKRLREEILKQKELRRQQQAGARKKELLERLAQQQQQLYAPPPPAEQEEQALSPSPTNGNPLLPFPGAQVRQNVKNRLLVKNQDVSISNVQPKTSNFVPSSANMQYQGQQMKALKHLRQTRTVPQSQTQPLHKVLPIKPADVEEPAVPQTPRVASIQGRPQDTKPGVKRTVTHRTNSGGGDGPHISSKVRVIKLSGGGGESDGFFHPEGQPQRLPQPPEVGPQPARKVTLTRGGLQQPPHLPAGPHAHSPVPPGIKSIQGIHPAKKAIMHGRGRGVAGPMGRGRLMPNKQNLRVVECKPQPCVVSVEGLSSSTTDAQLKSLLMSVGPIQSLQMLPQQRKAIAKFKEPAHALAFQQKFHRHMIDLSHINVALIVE

Compound in this experiment: COc1ccc(Cn2ccc3ccc(C(=O)NO)cc32)cc1
Kind of experiment: dose-dependent thermal stabilisation call (2D-TPP, DLPTP, 10% FDR) (binary (1 = stabilised)); higher = stabilised by the compound. The following applies: system: HL-60 intact cells; concentration range 0.04-10 µM.

As to PSME2 (UniProt Q9UL46), the “dose-dependent thermal stabilisation call” value was inactive: 0. The value for RAB3C (UniProt Q96E17) was inactive: 0. The figure for PSMD8 (UniProt P48556) is inactive: 0; for RABGAP1 (UniProt Q9Y3P9) it is inactive: 0.

For PTPN12 (UniProt Q05209), the “dose-dependent thermal stabilisation call” value was inactive: 0. As for RAD54B (UniProt Q9Y620), the “dose-dependent thermal stabilisation call” value was inactive: 0. For PUF60 (UniProt Q9UHX1), the “dose-dependent thermal stabilisation call” value was inactive: 0. The value for PRPS2 (UniProt P11908) was active: 1; that for RBM12B (UniProt Q8IXT5) was inactive: 0. For the target PSMF1 (UniProt Q92530), the “dose-dependent thermal stabilisation call” value was inactive: 0. Turning to RAD18 (UniProt Q9NS91), the “dose-dependent thermal stabilisation call” value is inactive: 0. The figure for QDPR (UniProt P09417) is inactive: 0; for PTGR2 (UniProt Q8N8N7) it is inactive: 0; for PSMA5 (UniProt P28066) it is inactive: 0. On to PTAR1 (UniProt Q7Z6K3), for which the “dose-dependent thermal stabilisation call” value was inactive: 0.

In the case of PSMG2 (UniProt Q969U7), the “dose-dependent thermal stabilisation call” value is inactive: 0. With RABAC1 (UniProt Q9UI14), the “dose-dependent thermal stabilisation call” value was inactive: 0. The figure for PSMD4 (UniProt P55036) is inactive: 0; for PSMB2 (UniProt P49721) it is inactive: 0; for PSMD1 (UniProt Q99460) it is inactive: 0. The value for RAP2B (UniProt P61225) was inactive: 0. On to PTMA (UniProt P06454), for which the “dose-dependent thermal stabilisation call” value is inactive: 0. The figure for RBM15B (UniProt Q8NDT2) is inactive: 0; for RBBP5 (UniProt Q15291) it is inactive: 0; for RAB12 (UniProt Q6IQ22) it is inactive: 0. The value for RAB3A (UniProt P20336) was inactive: 0; that for RAD1 (UniProt O60671) was inactive: 0; that for RB1 (UniProt P06400) was inactive: 0.

In the case of PYCRL (UniProt Q53H96), the “dose-dependent thermal stabilisation call” value is inactive: 0.

Take PXK (UniProt Q7Z7A4): the “dose-dependent thermal stabilisation call” value is inactive: 0.

For QSOX2 (UniProt Q6ZRP7), the “dose-dependent thermal stabilisation call” value was inactive: 0. Regarding PRPF39 (UniProt Q86UA1), the “dose-dependent thermal stabilisation call” value was inactive: 0. On to RABL3 (UniProt Q5HYI8), for which the “dose-dependent thermal stabilisation call” value is inactive: 0. The value for PSMD9 (UniProt O00233) was inactive: 0; that for RASSF5 (UniProt Q8WWW0) was inactive: 0. The figure for RAB23 (UniProt Q9ULC3) is inactive: 0; for PTPRE (UniProt P23469) it is inactive: 0. The figure for RBM33 (UniProt Q96EV2) is inactive: 0.

The values above are taken from the supplement of paper PMC7666118.
